Some of the results follow.
Key:
Experiment in all cases: glycan array binding signal (z-score within array); higher = stronger binding
Conditions in all cases: glycan notation: IUPAC condensed, linker removed
Gal(a1-3)Gal = target: Gal(a1-3)Gal
Method in brief: (§1)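 Negative Z-scores can be read as non-binding. The Z-score is calculated within each array and then averaged across arrays of one protein sequence at different concentrations or buffers and across linkers. Arrays, 3228 in all, were curated from the Consortium for Functional Glycomics database and kept only where the protein sequence was available.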

Gal(a1-3)Gal(b1-3)GlcNAc = target: Gal(a1-3)Gal(b1-3)GlcNAc
Method in brief: as §1

[1] = target: Gal(a1-3)Gal(b1-3)GlcNAc(b1-2)Man
Method in brief: as §1

[2] = target: Gal(a1-3)Gal(b1-3)GlcNAc(b1-2)Man(a1-3)[Gal(a1-3)Gal(b1-3)GlcNAc(b1-2)Man(a1-6)]Man(b1-4)GlcNAc(b1-4)GlcNAc
Method in brief: as §1

[3] = target: Gal(a1-3)Gal(b1-3)GlcNAc(b1-3)GalNAc
Method in brief: as §1

[4] = target: Gal(a1-3)Gal(b1-3)GlcNAc(b1-6)GalNAc
Method in brief: as §1

[5] = target: Gal(a1-3)Gal(b1-3)[Fuc(a1-4)]GlcNAc(b1-2)Man(a1-3)[Gal(a1-3)Gal(b1-3)[Fuc(a1-4)]GlcNAc(b1-2)Man(a1-6)]Man(b1-4)GlcNAc(b1-4)GlcNAc
Method in brief: as §1

Gal(a1-3)Gal(b1-4)Glc = target: Gal(a1-3)Gal(b1-4)Glc
Method in brief: as §1

Gal(a1-3)Gal(b1-4)GlcNAc = target: Gal(a1-3)Gal(b1-4)GlcNAc
Method in brief: as §1

[6] = target: Gal(a1-3)Gal(b1-4)GlcNAc(b1-2)Man
Method in brief: as §1

[7] = target: Gal(a1-3)Gal(b1-4)GlcNAc(b1-2)Man(a1-3)[Gal(a1-3)Gal(b1-4)GlcNAc(b1-2)Man(a1-6)]Man(b1-4)GlcNAc(b1-4)GlcNAc
Method in brief: as §1

[8] = target: Gal(a1-3)Gal(b1-4)GlcNAc(b1-3)GalNAc
Method in brief: as §1

[9] = target: Gal(a1-3)Gal(b1-4)GlcNAc(b1-6)GalNAc
Method in brief: as §1

[10] = target: Gal(a1-3)Gal(b1-4)[Fuc(a1-3)]GlcNAc
Method in brief: as §1

[11] = target: Gal(a1-3)Gal(b1-4)[Fuc(a1-3)]GlcNAc(b1-2)Man(a1-3)[Gal(a1-3)Gal(b1-4)[Fuc(a1-3)]GlcNAc(b1-2)Man(a1-6)]Man(b1-4)GlcNAc(b1-4)GlcNAc
Method in brief: as §1

Gal(a1-3)GalNAc = target: Gal(a1-3)GalNAc
Method in brief: as §1

[12] = target: Gal(a1-3)[Gal(a1-4)]Gal(b1-4)GlcNAc
Method in brief: as §1

[13] = target: Gal(a1-4)Gal(b1-3)GlcNAc(b1-2)Man(a1-3)[Gal(a1-4)Gal(b1-3)GlcNAc(b1-2)Man(a1-6)]Man(b1-4)GlcNAc(b1-4)GlcNAc
Method in brief: as §1

Gal(a1-4)Gal(b1-4)Glc = target: Gal(a1-4)Gal(b1-4)Glc
Method in brief: as §1

Gal(a1-4)Gal(b1-4)GlcNAc = target: Gal(a1-4)Gal(b1-4)GlcNAc
Method in brief: as §1

[14] = target: Gal(a1-4)Gal(b1-4)GlcNAc(b1-2)Man(a1-3)[Gal(a1-4)Gal(b1-4)GlcNAc(b1-2)Man(a1-6)]Man(b1-4)GlcNAc(b1-4)GlcNAc
Method in brief: as §1

[15] = target: Gal(a1-4)Gal(b1-4)GlcNAc(b1-3)Gal(b1-4)Glc
Method in brief: as §1

Gal(a1-4)GlcNAc = target: Gal(a1-4)GlcNAc
Method in brief: as §1

Gal(a1-6)Glc = target: Gal(a1-6)Glc
Method in brief: as §1

Gal(b1-2)Gal = target: Gal(b1-2)Gal
Method in brief: as §1

Gal(b1-3)Gal = target: Gal(b1-3)Gal
Method in brief: as §1

Gal(b1-3)Gal(b1-4)GlcNAc = target: Gal(b1-3)Gal(b1-4)GlcNAc
Method in brief: as §1

Gal(b1-3)GalNAc = target: Gal(b1-3)GalNAc
Method in brief: as §1

[16] = target: Gal(b1-3)GalNAc(a1-3)[Fuc(a1-2)]Gal(b1-4)Glc
Method in brief: as §1

[17] = target: Gal(b1-3)GalNAc(a1-3)[Fuc(a1-2)]Gal(b1-4)GlcNAc
Method in brief: as §1

Gal(b1-3)GalNAc(b1-3)Gal = target: Gal(b1-3)GalNAc(b1-3)Gal
Method in brief: as §1

[18] = target: Gal(b1-3)GalNAc(b1-3)Gal(a1-4)Gal(b1-4)Glc
Method in brief: as §1

[19] = target: Gal(b1-3)GalNAc(b1-4)Gal(b1-4)Glc
Method in brief: as §1

[20] = target: Gal(b1-3)GalNAc(b1-4)[Neu5Ac(a2-3)]Gal(b1-4)Glc
Method in brief: as §1

Gal(b1-3)GlcNAc = target: Gal(b1-3)GlcNAc
Method in brief: as §1

[21] = target: Gal(b1-3)GlcNAc(a1-3)Gal(b1-4)GlcNAc
Method in brief: as §1

[22] = target: Gal(b1-3)GlcNAc(a1-6)Gal(b1-4)GlcNAc
Method in brief: as §1

Gal(b1-3)GlcNAc(b1-2)Man = target: Gal(b1-3)GlcNAc(b1-2)Man
Method in brief: as §1

B1: SabA (Helicobacter pylori) (protein)
chain: MGSSHHHHHHSSGLVPRGSHMENLYFQGEDNGFFVSAGYQIGEAVQMVKNTGELKNLNEKYEQLSQYLNQVASLKQSIQNANNIELVNSSLNYLKSFTNNNYNSTTQSPIFNAVQAVITSVLGFWSLYAGNYFTFFVGKKVGDSGQPASVQGNPPFKTIIENCSGIENCAMDQTTYDKMKKLAEDLQAAQTNSATKGNNLCALSGCAATDSTSNPPNSTVSNALNLAQQLMDLIANTKTAMMWKNIVISGVSNTSGAITSTNYPTQYAVFNNIKAMIPILQQAVTLSQSNHTLSASLQAQATGSQTNPKFAKDIYTFAQNQKQVISYAQDIFNLFNSIPAEQYKYLEKAYLKIPNAGSTPTNPYRQVVNLNQEVQTIKNNVSYYGNRVDAALSVARDVYNLKSNQAEIVTAYNDAKTLSEEISKLPHNQVNTKDIVTLPYDKNAPAAGQSNYQINPEQQSNLNQALAAMSNNPFKKVGMISSQNNNGA
**Q.** B1 was tested. Which “glycan array binding signal (z-score)” value (Gal(a1-3)Gal) did it give?
**A.** Its value is 0.291.

**Q.** And the “glycan array binding signal (z-score)” value (Gal(a1-3)Gal(b1-3)GlcNAc)?
**A.** Its value is -0.088.

**Q.** What about the “glycan array binding signal (z-score)” value [1] of the same binder?
**A.** The value was -0.169.

**Q.** And the “glycan array binding signal (z-score)” value [2]?
**A.** The value was 0.775.

**Q.** And the “glycan array binding signal (z-score)” value [3]?
**A.** The value was -0.328.

**Q.** What about the “glycan array binding signal (z-score)” value [4] of the same binder?
**A.** The value was -0.66.

**Q.** What about the “glycan array binding signal (z-score)” value [5] of the same binder?
**A.** The value was 0.26.

**Q.** What about the “glycan array binding signal (z-score)” value (Gal(a1-3)Gal(b1-4)Glc) of the same binder?
**A.** Its value is 0.427.

**Q.** And the “glycan array binding signal (z-score)” value (Gal(a1-3)Gal(b1-4)GlcNAc)?
**A.** Its value is 0.561.

**Q.** And the “glycan array binding signal (z-score)” value [6]?
**A.** The value was -1.32.

**Q.** And the “glycan array binding signal (z-score)” value [7]?
**A.** The value was 0.752.

**Q.** What about the “glycan array binding signal (z-score)” value [8] of the same binder?
**A.** The value was -0.125.

**Q.** What about the “glycan array binding signal (z-score)” value [9] of the same binder?
**A.** The value was -0.362.

**Q.** What about the “glycan array binding signal (z-score)” value [10] of the same binder?
**A.** The value was 0.132.

**Q.** And the “glycan array binding signal (z-score)” value [11]?
**A.** The value was 0.582.

**Q.** What about the “glycan array binding signal (z-score)” value (Gal(a1-3)GalNAc) of the same binder?
**A.** Its value is -0.22.

**Q.** What about the “glycan array binding signal (z-score)” value [12] of the same binder?
**A.** Its value is 0.53.

**Q.** And the “glycan array binding signal (z-score)” value [13]?
**A.** Its value is 0.082.

**Q.** And the “glycan array binding signal (z-score)” value (Gal(a1-4)Gal(b1-4)Glc)?
**A.** The value was 0.21.

**Q.** What about the “glycan array binding signal (z-score)” value (Gal(a1-4)Gal(b1-4)GlcNAc) of the same binder?
**A.** The value was -0.05.

**Q.** What about the “glycan array binding signal (z-score)” value [14] of the same binder?
**A.** The value was 0.505.

**Q.** And the “glycan array binding signal (z-score)” value [15]?
**A.** Its value is -0.081.

**Q.** And the “glycan array binding signal (z-score)” value (Gal(a1-4)GlcNAc)?
**A.** Its value is -0.533.

**Q.** And the “glycan array binding signal (z-score)” value (Gal(a1-6)Glc)?
**A.** The value was -0.417.

**Q.** What about the “glycan array binding signal (z-score)” value (Gal(b1-2)Gal) of the same binder?
**A.** The value was -0.072.

**Q.** What about the “glycan array binding signal (z-score)” value (Gal(b1-3)Gal) of the same binder?
**A.** Its value is -0.298.

**Q.** And the “glycan array binding signal (z-score)” value (Gal(b1-3)Gal(b1-4)GlcNAc)?
**A.** The value was -0.637.

**Q.** What about the “glycan array binding signal (z-score)” value (Gal(b1-3)GalNAc) of the same binder?
**A.** Its value is -0.215.

**Q.** What about the “glycan array binding signal (z-score)” value [16] of the same binder?
**A.** The value was -0.144.

**Q.** What about the “glycan array binding signal (z-score)” value [17] of the same binder?
**A.** The value was -0.576.

**Q.** What about the “glycan array binding signal (z-score)” value (Gal(b1-3)GalNAc(b1-3)Gal) of the same binder?
**A.** The value was -0.627.

**Q.** What about the “glycan array binding signal (z-score)” value [18] of the same binder?
**A.** Its value is 0.876.

**Q.** And the “glycan array binding signal (z-score)” value [19]?
**A.** Its value is -0.316.

**Q.** And the “glycan array binding signal (z-score)” value [20]?
**A.** Its value is -0.353.

**Q.** What about the “glycan array binding signal (z-score)” value (Gal(b1-3)GlcNAc) of the same binder?
**A.** Its value is -0.315.

**Q.** What about the “glycan array binding signal (z-score)” value [21] of the same binder?
**A.** Its value is -0.729.

**Q.** And the “glycan array binding signal (z-score)” value [22]?
**A.** Its value is -0.324.

**Q.** What about the “glycan array binding signal (z-score)” value (Gal(b1-3)GlcNAc(b1-2)Man) of the same binder?
**A.** Its value is 0.435.
